Drawing on the supplement of paper PMC10689618, this text covers synaptosome phagocytosis for 39 compounds.

Some of the results follow. Single values are uncertain, as repeats are few or missing.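 Labelled rat cortical synaptosomes were engulfed by primary human fetal astrocytes. Engulfment equaled a red/green ratio, corrected for calcein live-cell signal and normalized to the plate median. Compounds were toxic when calcein dropped over 30%, and reduced phagocytosis when below 70% of the median above 5 µM.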

The first assay has as its system Human fetal astrocytes. In words: synaptosome phagocytosis (pHrodo/calcein intensity ratio) relative to plate median of data wells; higher = more phagocytosis. The conditions noted are these: 2.78 µM; 24 h.
As to `CC(CCC(=O)O)[C@H]1CCC2C3CC[C@@H]4CC(=O)CC[C@]4(C)C3C=C[C@@]21C` (some centres undefined), the synaptosome phagocytosis is 105%.
Same read-out and setting: under `CCOC(=O)[N-]c1c[n+](N2CCOCC2)no1` [Molsidomine] stands 97.8%; under `CN(C(=O)CN(CCO)CC(=O)N(C)C(C)(C)Cc1ccccc1)C(C)(C)Cc1ccccc1`, 116%; under `COc1ccc(CN(CCN(C)C)c2ncccn2)cc1`, 122%.
On the same count and under the same terms, to `C[N+](C)(C)CCOP(=O)(O)OP(=O)([O-])OC[C@H]1O[C@@H](n2ccc(N)nc2=O)[C@H](O)[C@@H]1O` belongs 114%; to `OC[C@H]1O[C@@](CO)(O[C@H]2O[C@H](CO)[C@@H](O)[C@H](O)[C@H]2O)[C@@H](O[C@H]2O[C@H](CO)[C@@H](O)[C@H](O)[C@H]2O)[C@@H]1O`, 112%; to `CC(C)/C(O)=C1/C(=O)O[C@@H](c2ccoc2)[C@]2(C)C(O)[C@@H](O)[C@@]34OC5(C)OC67CC(C)(C(O)[C@]6(O)[C@@H](O)[C@]3(O5)C12)[C@H](CC(=O)O)[C@]74C` (some centres undefined), 94.7%.
Same read-out and setting: to `CCN1CCCC(OC(=O)C(c2ccccc2)c2ccccc2)C1` (centres undefined) belongs 115%; to `Cc1cc(C)nc(NS(=O)(=O)c2ccc(N)cc2)n1`, 124%.
Turning to `C=C1C(=O)[C@]23[C@H](CC[C@@H]1[C@@H]2O)[C@]12CO[C@@]3(O)[C@H](O)[C@H]1C(C)(C)CC[C@@H]2O`, the synaptosome phagocytosis is 96.7%.

Still in this assay, the particulars now being: 5.56 µM; 24 h.
In the case of `C[C@@H]1CC[C@@]2(OC1)O[C@H]1C[C@H]3[C@@H]4CC[C@H]5C[C@@H](O)CC[C@]5(C)[C@H]4CC[C@]3(C)[C@H]1[C@@H]2C`, the synaptosome phagocytosis was 81.9%.
For the compound `c1coc(CNc2ncnc3[nH]cnc23)c1`, the synaptosome phagocytosis is 140%.
As for `OC(c1cc(C(F)(F)F)nc2c(C(F)(F)F)cccc12)C1CCCCN1` (centres undefined), the synaptosome phagocytosis is 81.2%.
On to `Oc1c(Cl)cc(Cl)c(Cl)c1Cc1c(O)c(Cl)cc(Cl)c1Cl`, for which the synaptosome phagocytosis is 43.7%.
On the same count and under the same terms, to `O=C(O)CCCC[C@@H]1SC[C@@H]2NC(=O)N[C@@H]21` belongs 103%; to `O=c1cc(-c2ccc(O)c(O)c2)oc2cc(O)cc(O)c12`, 103%; to `CCC(CCC(C)C1CCC2C3CCC4CC(O)CCC4(C)C3CCC12C)C(C)C` (centres undefined), 102%.
The same measure, in the same setting: under `Nc1nc(=S)c2ncn([C@@H]3O[C@H](CO)[C@@H](O)[C@H]3O)c2[nH]1` stands 37.5%.
On the same count and under the same terms, under `C=CC(C1=CC(=O)C(OC)=CC1=O)c1ccc(O)cc1` (centres undefined) stands 76.7%; under `O=C1C(CC[S+]([O-])c2ccccc2)C(=O)N(c2ccccc2)N1c1ccccc1` (centres undefined), 104%.
As to `CN1CCCN=C1/C=C/c1cccc(O)c1`, the synaptosome phagocytosis was 123%.
As for `O=C(O)c1ccc(S(=O)(=O)N(Cl)Cl)cc1`, the synaptosome phagocytosis is 146%.
The same measure, in the same setting: under `COc1ccc(-c2cc(=O)c3c(OC)c(OC)c(OC)c(OC)c3o2)cc1` stands 97.7%; under `COc1ccc2oc(-c3ccccc3)c(OC)c(=O)c2c1`, 71.8%; under `CN1CCc2c(c3ccccc3n2Cc2ccccc2)C1`, 19.6%.
For `CC[C@@]1(O)C(=O)OCc2c1cc1n(c2=O)Cc2cc3c(CN(C)C)c(O)ccc3nc2-1`, the synaptosome phagocytosis is 79.5%.
On the same count and under the same terms, under `N=C(N)NCCN1CCCCCCC1` stands 128%; under `N[C@@H](COCc1ccccc1)C(=O)O`, 92.8%.
The same measure, in the same setting: under `CCOC(=O)[C@H](CCc1ccccc1)N[C@@H](C)C(=O)N1CCC[C@H]1C(=O)O` stands 86.4%; under `COC(=O)C[C@H]1C(C)(C)[C@@H](O)[C@@H]2CC3=C4C=C(OC)O[C@@H](c5ccoc5)[C@]4(C)CCC3[C@@]1(C)C2=O` (stereo partly drawn) [3-DEOXO-3beta-HYDROXYMEXICANOLIDE 16-ENOL ETHER], 121%.
`CN1CCN(C(c2ccccc2)c2ccccc2)CC1`: the synaptosome phagocytosis was 86.4%.
Take `N[C@@H](CCC(=O)N[C@@H](CSC(CC(=O)O)C(=O)O)C(=O)NCC(=O)O)C(=O)O` (some centres undefined): the synaptosome phagocytosis was 105%.
The same measure, in the same setting: under `Cc1ccc(S(=O)(=O)NC(=O)NN2CC3CCCC3C2)cc1` (centres undefined) stands 137%; under `CC[C@H]1OC(=O)C[C@@H](O)[C@H](C)[C@@H](O[C@@H]2O[C@H](C)[C@@H](O)[C@H](N(C)C)[C@H]2O)[C@@H](CCN2C[C@H](C)C[C@H](C)C2)C[C@@H](C)C(=O)/C=C/C(C)=C/[C@@H]1CO[C@@H]1O[C@H](C)[C@@H](O)[C@@H](OC)[C@H]1OC`, 75.5%; under `Nc1ccccc1S(N)(=O)=O`, 97.1%.
Still for that read-out and setting: under `O=c1c(O)cc([C@H]2Oc3cc(O)cc(O)c3C[C@H]2O)cc2c([C@H]3Oc4cc(O)cc(O)c4C[C@H]3O)cc(O)c(O)c12` stands 141%.
Same read-out and setting: under `Cc1nc(C)c(Cl)c(O)c1Cl` stands 92.5%; under `CC(=O)O[C@H]1CC[C@]2(C)[C@H]3CC=C4[C@@H]5CC(C)(C)CC[C@]5(C)CC[C@@]4(C)[C@]3(C)CC[C@H]2C1(C)C` [beta-AMYRIN ACETATE], 92%; under `C#C[C@]1(OC(C)=O)CC[C@H]2[C@@H]3CCC4=C[C@@H](OC(C)=O)CC[C@@H]4[C@H]3CC[C@@]21C`, 101%.
In the case of `CC(CCC(=O)O)[C@H]1CCC2C3CC[C@@H]4CC(=O)CC[C@]4(C)C3C=C[C@@]21C` (some centres undefined), the synaptosome phagocytosis was 110%.
For the compound `CCOC(=O)[N-]c1c[n+](N2CCOCC2)no1` [Molsidomine], the synaptosome phagocytosis is 97.3%.
Regarding `CN(C(=O)CN(CCO)CC(=O)N(C)C(C)(C)Cc1ccccc1)C(C)(C)Cc1ccccc1`, the synaptosome phagocytosis is 122%.
Same read-out and setting: to `COc1ccc(CN(CCN(C)C)c2ncccn2)cc1` belongs 93.1%.
As to `C[N+](C)(C)CCOP(=O)(O)OP(=O)([O-])OC[C@H]1O[C@@H](n2ccc(N)nc2=O)[C@H](O)[C@@H]1O`, the synaptosome phagocytosis was 128%.
Still for that read-out and setting: to `OC[C@H]1O[C@@](CO)(O[C@H]2O[C@H](CO)[C@@H](O)[C@H](O)[C@H]2O)[C@@H](O[C@H]2O[C@H](CO)[C@@H](O)[C@H](O)[C@H]2O)[C@@H]1O` belongs 121%.
Still for that read-out and setting: under `CC(C)/C(O)=C1/C(=O)O[C@@H](c2ccoc2)[C@]2(C)C(O)[C@@H](O)[C@@]34OC5(C)OC67CC(C)(C(O)[C@]6(O)[C@@H](O)[C@]3(O5)C12)[C@H](CC(=O)O)[C@]74C` (some centres undefined) stands 124%.
As to `CCN1CCCC(OC(=O)C(c2ccccc2)c2ccccc2)C1` (centres undefined), the synaptosome phagocytosis was 82.1%.
Still for that read-out and setting: to `Cc1cc(C)nc(NS(=O)(=O)c2ccc(N)cc2)n1` belongs 129%; to `C=C1C(=O)[C@]23[C@H](CC[C@@H]1[C@@H]2O)[C@]12CO[C@@]3(O)[C@H](O)[C@H]1C(C)(C)CC[C@@H]2O`, 101%.
